The values that follow come from doi:10.1101/2023.03.13.532050.

No constants are given. Whether binding was seen depends on the method and setting. Binding calls can cover weak binding; strength is not graded here.

This assay deals with Acar3 heavy chain (residues 1-272), construct for structural studies (great reed warbler (Acrocephalus arundinaceus)). In words: crystal structure.

MTMITPPTF [peptide 3 (…)]: the binding result is “binds”.
